In article PMC3701701:
No constants are given. Whether binding was seen depends on the method and setting. For part of these data: Binding calls can cover weak binding; strength is not graded here. Tags and fused reporters may be left off the sequences shown.

By UniProt entry, the sequences of proteins in these tests, tags left out. Where a name states a change or a piece, a line headed by the entry shows the natural chain unless it says otherwise.
UniProt P40568: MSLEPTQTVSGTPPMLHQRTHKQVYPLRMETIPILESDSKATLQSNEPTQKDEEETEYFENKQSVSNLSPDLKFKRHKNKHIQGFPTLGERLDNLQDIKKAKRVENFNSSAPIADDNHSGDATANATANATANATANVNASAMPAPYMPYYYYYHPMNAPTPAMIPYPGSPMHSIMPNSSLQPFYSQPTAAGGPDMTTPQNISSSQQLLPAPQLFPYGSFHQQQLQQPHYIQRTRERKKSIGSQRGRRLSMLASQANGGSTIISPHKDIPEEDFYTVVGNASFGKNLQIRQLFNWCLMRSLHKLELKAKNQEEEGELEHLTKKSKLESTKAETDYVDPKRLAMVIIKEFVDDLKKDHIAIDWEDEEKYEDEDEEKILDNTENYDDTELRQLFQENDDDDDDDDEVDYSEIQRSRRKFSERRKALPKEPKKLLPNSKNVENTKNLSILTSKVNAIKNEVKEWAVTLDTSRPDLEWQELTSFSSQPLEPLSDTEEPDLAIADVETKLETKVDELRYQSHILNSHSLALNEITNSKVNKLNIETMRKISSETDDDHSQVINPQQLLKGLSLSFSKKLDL

Assays:
Experiment in all cases: two-hybrid; Dsn1 and its variants fused to Gal4-DBD (pGBKT7), Csm1 fused to Gal4-AD (pGADT7) in AH109; growth on SD-LEU-TRP-ADE-HIS plates at 30°C for 2-3 days
[1] = biological target: Dsn1 (1-220B1A, Box1 alanine substituted) fused to Gal4-DBD (S. cerevisiae) (UniProt P40568)
[2] = biological target: Dsn1 (1-220B2A, Box 2 alanine substituted) fused to Gal4-DBD (S. cerevisiae) (UniProt P40568)
[3] = biological target: Dsn1 (1-220B3A, Box 3 alanine substituted) fused to Gal4-DBD (S. cerevisiae) (UniProt P40568)

B1: Csm1 fused to Gal4-AD (protein, UniProt P25651 1-190)
chain: MDPLTVYKNSVKQQIDSADLLVANLVNENFVLSEKLDTKATEIKQLQKQIDSLNAQVKELKTQTSQQAENSEVIKDLYEYLCNVRVHKSYEDDSGLWFDISQGTHSGGSSDDYSIMDYKLGFVKGQAQVTEVIYAPVLKQRSTEELYSLQSKLPEYLFETLSFPLSSLNQFYNKIAKSLNKKREKKDETE
binding [1]: binds | binding [2]: no binding | binding [3]: no binding
